Data as given in publication PMC9241615.

The chains behind the UniProt entries cited, without tags or fusion partners. Where a name states a change or a piece, a line headed by the entry shows the natural chain unless it says otherwise. A line that says so, or that is headed by a name, gives the form on record, which may keep a tag or linker.
UniProt Q5MWV9: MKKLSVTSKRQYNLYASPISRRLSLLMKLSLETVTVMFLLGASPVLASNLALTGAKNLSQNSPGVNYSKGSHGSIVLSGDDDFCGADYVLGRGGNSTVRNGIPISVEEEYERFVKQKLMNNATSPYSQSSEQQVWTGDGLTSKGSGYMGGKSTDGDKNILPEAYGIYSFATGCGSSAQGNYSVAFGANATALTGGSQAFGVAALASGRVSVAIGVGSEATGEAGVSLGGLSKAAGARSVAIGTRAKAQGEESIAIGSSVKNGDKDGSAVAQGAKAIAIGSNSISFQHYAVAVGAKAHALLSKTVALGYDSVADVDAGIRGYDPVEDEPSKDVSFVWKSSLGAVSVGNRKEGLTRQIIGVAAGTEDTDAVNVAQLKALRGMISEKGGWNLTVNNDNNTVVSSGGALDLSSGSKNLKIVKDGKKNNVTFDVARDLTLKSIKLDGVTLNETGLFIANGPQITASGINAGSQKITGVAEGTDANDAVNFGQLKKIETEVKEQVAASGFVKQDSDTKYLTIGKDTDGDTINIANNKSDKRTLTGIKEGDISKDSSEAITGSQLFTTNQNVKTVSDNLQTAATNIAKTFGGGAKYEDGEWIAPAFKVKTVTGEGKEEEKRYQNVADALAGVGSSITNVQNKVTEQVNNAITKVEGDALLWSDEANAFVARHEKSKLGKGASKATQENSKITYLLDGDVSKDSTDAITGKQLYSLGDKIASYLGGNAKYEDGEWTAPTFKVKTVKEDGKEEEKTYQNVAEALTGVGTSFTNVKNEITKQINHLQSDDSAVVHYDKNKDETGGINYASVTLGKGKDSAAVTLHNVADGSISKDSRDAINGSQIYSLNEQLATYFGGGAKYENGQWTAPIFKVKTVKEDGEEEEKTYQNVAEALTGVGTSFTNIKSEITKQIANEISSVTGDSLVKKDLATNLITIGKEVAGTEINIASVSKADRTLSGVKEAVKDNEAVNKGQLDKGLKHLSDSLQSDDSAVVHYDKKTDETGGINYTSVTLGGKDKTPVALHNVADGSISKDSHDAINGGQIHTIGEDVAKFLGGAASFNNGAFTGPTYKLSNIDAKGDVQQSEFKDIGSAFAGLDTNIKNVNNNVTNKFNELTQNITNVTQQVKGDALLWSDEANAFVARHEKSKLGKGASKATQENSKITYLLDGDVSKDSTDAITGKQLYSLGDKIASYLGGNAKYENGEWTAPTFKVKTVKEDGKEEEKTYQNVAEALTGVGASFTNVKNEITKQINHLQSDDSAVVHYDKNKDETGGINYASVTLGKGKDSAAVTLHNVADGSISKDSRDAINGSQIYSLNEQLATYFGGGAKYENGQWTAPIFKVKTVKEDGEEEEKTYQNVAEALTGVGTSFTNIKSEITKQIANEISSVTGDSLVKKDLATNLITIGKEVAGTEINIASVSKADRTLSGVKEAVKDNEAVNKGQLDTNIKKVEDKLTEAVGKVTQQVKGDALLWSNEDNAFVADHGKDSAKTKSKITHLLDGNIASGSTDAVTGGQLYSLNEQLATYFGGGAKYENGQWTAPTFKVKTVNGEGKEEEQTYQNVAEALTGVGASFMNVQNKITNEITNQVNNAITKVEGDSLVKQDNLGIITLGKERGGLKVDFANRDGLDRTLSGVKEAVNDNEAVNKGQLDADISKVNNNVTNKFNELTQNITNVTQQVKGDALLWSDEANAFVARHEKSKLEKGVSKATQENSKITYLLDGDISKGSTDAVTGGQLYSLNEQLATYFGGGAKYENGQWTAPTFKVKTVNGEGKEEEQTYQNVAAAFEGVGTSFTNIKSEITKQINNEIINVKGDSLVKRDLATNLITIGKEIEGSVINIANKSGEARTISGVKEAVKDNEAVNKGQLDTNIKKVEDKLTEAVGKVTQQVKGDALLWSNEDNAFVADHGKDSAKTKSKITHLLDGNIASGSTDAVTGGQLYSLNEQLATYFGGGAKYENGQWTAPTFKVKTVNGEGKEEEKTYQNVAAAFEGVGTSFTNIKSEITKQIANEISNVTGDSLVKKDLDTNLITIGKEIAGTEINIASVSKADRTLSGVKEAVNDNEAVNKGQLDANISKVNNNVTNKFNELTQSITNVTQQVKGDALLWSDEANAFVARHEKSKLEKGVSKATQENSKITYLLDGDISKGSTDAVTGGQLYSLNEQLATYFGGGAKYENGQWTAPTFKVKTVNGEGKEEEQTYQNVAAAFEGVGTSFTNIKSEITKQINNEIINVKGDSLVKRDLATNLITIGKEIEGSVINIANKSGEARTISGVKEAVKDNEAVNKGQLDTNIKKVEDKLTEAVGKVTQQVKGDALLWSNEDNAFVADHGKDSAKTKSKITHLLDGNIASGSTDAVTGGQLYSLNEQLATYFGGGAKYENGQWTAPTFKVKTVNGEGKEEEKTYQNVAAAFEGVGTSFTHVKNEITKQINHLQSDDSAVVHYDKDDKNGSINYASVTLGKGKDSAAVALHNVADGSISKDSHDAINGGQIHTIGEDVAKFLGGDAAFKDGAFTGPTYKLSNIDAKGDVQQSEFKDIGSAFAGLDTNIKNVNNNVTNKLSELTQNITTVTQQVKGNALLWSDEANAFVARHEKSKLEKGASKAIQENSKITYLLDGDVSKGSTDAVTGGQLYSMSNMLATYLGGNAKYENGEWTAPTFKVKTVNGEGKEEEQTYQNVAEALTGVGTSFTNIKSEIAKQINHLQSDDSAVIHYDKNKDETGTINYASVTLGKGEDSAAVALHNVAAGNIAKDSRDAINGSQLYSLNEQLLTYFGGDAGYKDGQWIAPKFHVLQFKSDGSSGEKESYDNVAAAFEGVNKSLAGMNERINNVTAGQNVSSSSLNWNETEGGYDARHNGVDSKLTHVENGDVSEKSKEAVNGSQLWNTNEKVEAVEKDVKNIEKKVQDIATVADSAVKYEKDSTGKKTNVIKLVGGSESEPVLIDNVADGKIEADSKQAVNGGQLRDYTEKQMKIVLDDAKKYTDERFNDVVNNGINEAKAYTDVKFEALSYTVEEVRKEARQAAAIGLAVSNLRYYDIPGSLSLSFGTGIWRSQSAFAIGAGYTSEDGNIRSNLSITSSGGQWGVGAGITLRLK
recombinant human fibronectin (Rn Fn), isoform 1 (P02751-1, form named): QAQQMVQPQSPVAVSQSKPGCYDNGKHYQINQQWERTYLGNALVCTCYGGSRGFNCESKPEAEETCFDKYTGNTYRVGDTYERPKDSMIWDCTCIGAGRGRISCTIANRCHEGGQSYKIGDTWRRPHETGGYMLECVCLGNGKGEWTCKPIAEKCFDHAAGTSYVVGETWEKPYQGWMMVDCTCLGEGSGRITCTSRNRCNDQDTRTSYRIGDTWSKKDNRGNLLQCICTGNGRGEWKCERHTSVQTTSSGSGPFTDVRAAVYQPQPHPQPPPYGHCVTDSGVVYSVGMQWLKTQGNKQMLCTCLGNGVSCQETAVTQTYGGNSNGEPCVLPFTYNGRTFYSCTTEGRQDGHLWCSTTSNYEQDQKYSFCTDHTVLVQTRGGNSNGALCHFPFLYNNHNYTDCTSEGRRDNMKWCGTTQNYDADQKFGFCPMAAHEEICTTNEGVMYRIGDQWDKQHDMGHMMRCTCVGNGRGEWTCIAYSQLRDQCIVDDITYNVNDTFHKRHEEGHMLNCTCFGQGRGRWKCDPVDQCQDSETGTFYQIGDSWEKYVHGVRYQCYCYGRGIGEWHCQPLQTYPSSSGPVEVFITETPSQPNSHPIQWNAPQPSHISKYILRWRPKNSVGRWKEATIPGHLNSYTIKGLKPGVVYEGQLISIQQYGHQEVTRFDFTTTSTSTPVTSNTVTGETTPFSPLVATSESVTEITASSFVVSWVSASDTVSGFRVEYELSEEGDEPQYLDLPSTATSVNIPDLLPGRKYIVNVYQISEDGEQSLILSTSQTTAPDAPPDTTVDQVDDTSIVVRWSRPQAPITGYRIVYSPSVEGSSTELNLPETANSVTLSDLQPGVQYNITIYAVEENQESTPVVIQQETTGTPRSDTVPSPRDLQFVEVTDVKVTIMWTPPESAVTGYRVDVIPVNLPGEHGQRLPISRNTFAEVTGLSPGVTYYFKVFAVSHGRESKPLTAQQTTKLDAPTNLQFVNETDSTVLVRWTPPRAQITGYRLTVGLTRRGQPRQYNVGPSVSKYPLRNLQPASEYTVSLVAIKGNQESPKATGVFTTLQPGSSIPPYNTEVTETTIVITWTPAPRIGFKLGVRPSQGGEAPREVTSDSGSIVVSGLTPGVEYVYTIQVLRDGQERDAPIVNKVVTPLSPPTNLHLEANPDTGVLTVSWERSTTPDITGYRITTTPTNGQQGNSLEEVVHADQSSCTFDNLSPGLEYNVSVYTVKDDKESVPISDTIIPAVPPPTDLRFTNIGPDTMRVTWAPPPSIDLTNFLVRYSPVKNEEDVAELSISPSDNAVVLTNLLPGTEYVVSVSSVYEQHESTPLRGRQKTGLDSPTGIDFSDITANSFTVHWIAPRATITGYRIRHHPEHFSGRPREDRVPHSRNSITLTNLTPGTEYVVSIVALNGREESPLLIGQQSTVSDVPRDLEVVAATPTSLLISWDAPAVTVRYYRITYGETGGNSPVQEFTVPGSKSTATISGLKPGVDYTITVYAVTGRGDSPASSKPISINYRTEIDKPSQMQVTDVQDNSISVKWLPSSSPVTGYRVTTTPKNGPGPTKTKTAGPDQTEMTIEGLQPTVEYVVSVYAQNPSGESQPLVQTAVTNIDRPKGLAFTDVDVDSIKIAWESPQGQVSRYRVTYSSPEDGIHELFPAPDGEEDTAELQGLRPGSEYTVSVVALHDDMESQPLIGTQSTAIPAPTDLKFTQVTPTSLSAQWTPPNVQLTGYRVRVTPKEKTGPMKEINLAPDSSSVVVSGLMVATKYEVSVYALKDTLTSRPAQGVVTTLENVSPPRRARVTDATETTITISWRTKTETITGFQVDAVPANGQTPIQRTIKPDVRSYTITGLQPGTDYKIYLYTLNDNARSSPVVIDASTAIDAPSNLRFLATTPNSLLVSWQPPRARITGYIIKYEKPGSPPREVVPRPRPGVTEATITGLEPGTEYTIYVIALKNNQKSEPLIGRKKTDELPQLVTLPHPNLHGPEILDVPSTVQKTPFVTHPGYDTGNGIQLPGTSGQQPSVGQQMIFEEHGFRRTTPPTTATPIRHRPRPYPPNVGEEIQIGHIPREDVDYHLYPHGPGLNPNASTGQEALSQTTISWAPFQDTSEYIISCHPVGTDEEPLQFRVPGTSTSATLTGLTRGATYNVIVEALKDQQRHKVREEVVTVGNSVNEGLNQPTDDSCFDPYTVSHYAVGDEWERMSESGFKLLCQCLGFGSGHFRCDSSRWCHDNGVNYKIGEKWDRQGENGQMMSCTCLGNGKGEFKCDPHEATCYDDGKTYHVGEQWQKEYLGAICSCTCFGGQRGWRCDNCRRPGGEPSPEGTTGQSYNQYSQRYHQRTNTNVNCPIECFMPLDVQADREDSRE

Target: Bartonella adhesin A (BadA) on whole B. henselae Marseille wild type bacteria (Bartonella henselae (strain Marseille)) (UniProt Q5MWV9)
Experiment: cross-linking; XL-MS; whole B. henselae WT (BadA^- as negative control) incubated with purified Rn Fn or cellular Fn (7.5 μg, 30 min, 37°C, DPBS), washed, DSS-H12/D12 500 or 2,000 μM for 60 min at 37°C; surface-attached or whole-cell proteins; trypsin, DDA-MS, pLink 2, FDR 1%; only the binder purified

“recombinant human fibronectin (Rn Fn), isoform 1 (from UniProt P02751-1 32-2386)” was tested, and the binding was “binds”.

Results are given in words; binding and its absence hold for the method and conditions named. In cells and extracts the contact can be indirect. A result given as binding can be weak or reduced; the word gives no strength.
